Assay results: US7906486B2, “Method of treating or preventing tissue deterioration, injury or damage due to disease of mucosa” (SciClone Pharmaceuticals, Inc., priority 2007, dated 2011)
Several values for one entry are separate records, joined by “and”; a condition that tells them apart may be missing. Identical values can stand only once. Further values from the same series stand in other lists.

Experiment: Weights and survival (Example 4, SCI-04)
Type: in vivo, Syrian Golden Hamsters
Set-up: unit not given here
Settings: individual animals
Protocol: All animals were weighed daily and their survival recorded, in order to assess possible differences in animal weight among treatment groups as an indication for mucositis severity and/or possible toxicity resulting from the treatments.
There were no significant differences in weight changes between study groups. The mean daily percent weight change data was evaluated. The saline treated control hamsters gained an average of 46.5% of their starting weight during the study. Hamsters in the group receiving SCV-07 at 10 μg/kg on days −1 to 20 gained an average of 51.3% of their starting weight during the study. Hamsters in the group receiving SCV-07 at 100 μg/kg on days −1 to 20 gained an average of 46.7% of their starting weight during the study. Hamsters in the group receiving SCV-07 at 1 mg/kg from day −1 to day 20 gained an average of 48.8% of their starting weight during the study. The significance of these differences was evaluated by calculating the area-under-the-curve (AUC) for the weight gain of each animal, and then comparing the different treatment groups using a One-Way ANOVA test.

N[C@H](CCC(=O)N[C@@H](Cc1c[nH]c2ccccc12)C(=O)O)C(=O)O [SCV-07, γ-D-glutamyl-L-tryptophan]
Animal weight (Group 3 (SCV-07 100 μg/kg, day −1 to day 20), day 15): 109 and 97 and 103 (2×) and 131 and 95 (2×) and 110 and 128 and 116 | Animal weight (Group 3 (SCV-07 100 μg/kg, day −1 to day 20), day 16): 110 and 98 and 103 and 132 and 97 (2×) and 101 and 128 and 117 and 105 | Animal weight (Group 3 (SCV-07 100 μg/kg, day −1 to day 20), day 17): 112 and 100 (2×) and 106 (2×) and 134 and 99 and 103 and 129 and 119 | Animal weight (Group 3 (SCV-07 100 μg/kg, day −1 to day 20), day 18): 114 and 102 and 107 and 134 and 101 (2×) and 104 and 132 and 120 and 108 | Animal weight (Group 3 (SCV-07 100 μg/kg, day −1 to day 20), day 19): 115 and 103 and 110 and 140 and 101 and 105 and 134 and 123 and 112 and 102 | Animal weight (Group 3 (SCV-07 100 μg/kg, day −1 to day 20), day 20): 118 and 104 and 110 and 139 and 105 and 106 and 136 and 123 and 112 and 102 | Animal weight (Group 3 (SCV-07 100 μg/kg, day −1 to day 20), day 21): 117 (2×) and 107 and 113 and 142 and 106 (2×) and 138 and 126 and 104 | Animal weight (Group 3 (SCV-07 100 μg/kg, day −1 to day 20), day 22): 123 and 109 (2×) and 114 and 146 and 108 and 139 and 128 and 118 and 107 | Animal weight (Group 3 (SCV-07 100 μg/kg, day −1 to day 20), day 23): 123 and 108 and 113 and 146 and 106 and 109 and 138 and 128 and 117 and 107 | Animal weight (Group 3 (SCV-07 100 μg/kg, day −1 to day 20), day 24): 128 and 113 (2×) and 117 and 146 and 112 and 141 and 131 and 123 and 111 | Animal weight (Group 3 (SCV-07 100 μg/kg, day −1 to day 20), day 25): 127 and 112 (2×) and 117 and 148 and 115 and 143 and 133 and 123 and 114 | Animal weight (Group 3 (SCV-07 100 μg/kg, day −1 to day 20), day 26): 130 and 115 and 123 and 149 and 118 and 113 and 146 and 132 and 125 and 116 | Animal weight (Group 3 (SCV-07 100 μg/kg, day −1 to day 20), day 27): 130 and 112 and 119 and 149 and 116 and 113 and 146 and 133 and 126 and 115 | Animal weight (Group 3 (SCV-07 100 μg/kg, day −1 to day 20), day 28): 133 and 117 and 123 and 154 and 120 and 116 and 149 and 137 and 130 and 118 | Animal weight (Group 3 (SCV-07 100 μg/kg, day −1 to day 20), day −1): 87 and 81 and 85 and 104 and 78 and 92 and 103 and 96 and 83 and 77 | Animal weight (Group 4 (SCV-07 1 mg/kg, day −1 to day 20), day 0, 1 mg/kg): 96 (4×) and 91 and 85 and 88 (2×) and 102 and 97 | Animal weight (Group 4 (SCV-07 1 mg/kg, day −1 to day 20), day 1, 1 mg/kg): 94 and 93 (2×) and 89 and 85 (2×) and 97 and 104 and 83 and 99 | Animal weight (Group 4 (SCV-07 1 mg/kg, day −1 to day 20), day 2, 1 mg/kg): 98 and 95 and 90 and 89 and 101 (2×) and 87 and 108 and 93 and 85 | Animal weight (Group 4 (SCV-07 1 mg/kg, day −1 to day 20), day 3, 1 mg/kg): 103 and 99 and 94 and 92 and 106 and 93 (2×) and 114 and 98 and 107 | Animal weight (Group 4 (SCV-07 1 mg/kg, day −1 to day 20), day 4, 1 mg/kg): 106 and 103 (2×) and 100 and 96 (2×) and 108 and 115 and 93 and 107 | Animal weight (Group 4 (SCV-07 1 mg/kg, day −1 to day 20), day 5, 1 mg/kg): 108 and 104 and 101 and 98 and 111 and 99 and 120 and 105 and 95 and 112 | Animal weight (Group 4 (SCV-07 1 mg/kg, day −1 to day 20), day 6, 1 mg/kg): 110 and 106 and 103 (3×) and 115 and 119 and 107 and 95 and 113 | Animal weight (Group 4 (SCV-07 1 mg/kg, day −1 to day 20), day 7, 1 mg/kg): 111 and 109 and 107 and 104 and 118 and 105 and 123 and 110 and 98 and 115 | Animal weight (Group 4 (SCV-07 1 mg/kg, day −1 to day 20), day 8, 1 mg/kg): 112 and 110 (2×) and 120 and 105 and 108 and 125 and 113 and 100 and 117 | Animal weight (Group 4 (SCV-07 1 mg/kg, day −1 to day 20), day 9, 1 mg/kg): 112 and 111 and 110 and 107 and 121 and 109 and 127 and 113 and 102 and 118 | Animal weight (Group 4 (SCV-07 1 mg/kg, day −1 to day 20), day 10, 1 mg/kg): 113 (3×) and 114 and 109 and 124 and 128 and 116 and 104 and 120 | Animal weight (Group 4 (SCV-07 1 mg/kg, day −1 to day 20), day 11, 1 mg/kg): 111 and 113 and 115 and 112 and 122 and 114 and 127 and 116 and 102 and 123 | Animal weight (Group 4 (SCV-07 1 mg/kg, day −1 to day 20), day 12, 1 mg/kg): 113 (3×) and 114 and 126 and 118 and 127 and 116 and 104 and 125 | Animal weight (Group 4 (SCV-07 1 mg/kg, day −1 to day 20), day 13, 1 mg/kg): 113 (3×) and 114 and 124 and 120 and 122 and 115 and 104 and 125 | Animal weight (Group 4 (SCV-07 1 mg/kg, day −1 to day 20), day 14, 1 mg/kg): 114 (2×) and 113 (2×) and 115 and 124 and 121 and 125 and 103 and 127 | Animal weight (Group 4 (SCV-07 1 mg/kg, day −1 to day 20), day 15, 1 mg/kg): 112 (2×) and 123 and 116 and 114 and 118 and 125 (2×) and 115 and 105 | Animal weight (Group 4 (SCV-07 1 mg/kg, day −1 to day 20), day 16, 1 mg/kg): 113 and 116 (2×) and 114 and 123 and 119 and 128 (2×) and 115 and 107 | Animal weight (Group 4 (SCV-07 1 mg/kg, day −1 to day 20), day 17, 1 mg/kg): 114 and 118 and 117 and 120 (2×) and 127 and 131 (2×) and 119 and 110 | Animal weight (Group 4 (SCV-07 1 mg/kg, day −1 to day 20), day 18, 1 mg/kg): 116 and 119 (3×) and 120 and 130 and 123 and 132 and 112 and 134 | Animal weight (Group 4 (SCV-07 1 mg/kg, day −1 to day 20), day 19, 1 mg/kg): 117 and 119 and 122 and 123 (2×) and 130 and 134 and 121 and 114 and 135 | Animal weight (Group 4 (SCV-07 1 mg/kg, day −1 to day 20), day 20, 1 mg/kg): 120 and 122 (4×) and 132 and 125 and 135 and 114 and 133 | Animal weight (Group 4 (SCV-07 1 mg/kg, day −1 to day 20), day 21, 1 mg/kg): 121 and 123 (2×) and 126 and 125 and 137 and 128 and 139 and 115 and 138 | Animal weight (Group 4 (SCV-07 1 mg/kg, day −1 to day 20), day 22, 1 mg/kg): 123 and 125 (2×) and 129 and 126 and 141 and 130 and 143 and 117 and 142 | Animal weight (Group 4 (SCV-07 1 mg/kg, day −1 to day 20), day 23, 1 mg/kg): 124 (2×) and 128 and 127 and 139 and 129 and 143 and 126 and 116 and 144 | Animal weight (Group 4 (SCV-07 1 mg/kg, day −1 to day 20), day 24, 1 mg/kg): 130 and 129 (2×) and 133 and 142 and 134 and 145 and 128 and 119 and 148 | Animal weight (Group 4 (SCV-07 1 mg/kg, day −1 to day 20), day 25, 1 mg/kg): 130 (3×) and 137 and 131 and 147 and 136 and 148 and 123 and 149 | Animal weight (Group 4 (SCV-07 1 mg/kg, day −1 to day 20), day 26, 1 mg/kg): 133 (2×) and 132 and 138 and 131 and 147 and 139 and 150 and 126 and 152 | Animal weight (Group 4 (SCV-07 1 mg/kg, day −1 to day 20), day 27, 1 mg/kg): 133 (2×) and 138 and 131 and 145 and 137 and 150 and 132 and 125 and 151 | Animal weight (Group 4 (SCV-07 1 mg/kg, day −1 to day 20), day 28, 1 mg/kg): 136 (2×) and 141 and 133 and 150 and 142 and 153 and 135 and 130 and 155 | Animal weight (Group 4 (SCV-07 1 mg/kg, day −1 to day 20), day −1, 1 mg/kg): 97 (2×) and 96 and 93 and 87 and 100 and 88 (2×) and 104 and 99
